Data published in publication doi:10.1101/710020.
Results are given in words; binding and its absence hold for the method and conditions named. Binding seen in cells or lysates may run through a third protein. Some binding calls cover weakened binding; strength is not graded here. Tags and fused reporters may be left off the sequences shown.

Target: T1, Spt20-TAP (S. cerevisiae) (UniProt P50875)
T1 sequence: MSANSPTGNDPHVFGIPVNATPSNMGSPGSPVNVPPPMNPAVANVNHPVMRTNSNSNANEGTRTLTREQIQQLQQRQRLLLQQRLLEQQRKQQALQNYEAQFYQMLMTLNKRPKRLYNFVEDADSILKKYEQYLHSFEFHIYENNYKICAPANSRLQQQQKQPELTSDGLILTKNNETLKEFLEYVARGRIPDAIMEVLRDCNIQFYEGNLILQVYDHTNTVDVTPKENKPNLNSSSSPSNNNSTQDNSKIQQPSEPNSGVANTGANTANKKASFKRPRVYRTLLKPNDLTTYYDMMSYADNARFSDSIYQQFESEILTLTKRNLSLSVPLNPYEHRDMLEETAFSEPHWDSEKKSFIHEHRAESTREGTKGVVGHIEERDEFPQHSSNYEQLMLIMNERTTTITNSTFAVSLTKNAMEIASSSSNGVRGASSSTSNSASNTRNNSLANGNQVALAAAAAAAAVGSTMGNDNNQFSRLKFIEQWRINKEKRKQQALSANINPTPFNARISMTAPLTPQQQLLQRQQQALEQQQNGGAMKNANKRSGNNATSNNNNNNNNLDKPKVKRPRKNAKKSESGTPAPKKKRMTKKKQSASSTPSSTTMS
Assay: co-IP

binding: binds
B1: Spt8-myc (protein, UniProt P38915 1-602)
chain: MDEVDDILINNQVVDDEEDDEEMLSGLENDSKQDLEGNDDGGEDEEDDDDDDEDDDDDEDEREDDDEQEDDDGEDDAARMDKTATPTNEHQHDEQKAAAAGAGGAGDSGDAVTKIGSEDVKLSDVDGGVGSREASSSTHEASANGEVYEYYKHMLNAAQIADSYNIYPTAAIPIQTHVNALAVSRGLKYLFLGGSDGYIRKYDLLNTLEGKLSLTILQKHSLAESIQNAGILQSYWENEIPQKKSEMKLSANKTDYEPKVSPVHSLEVQSECLFILSGLQNGGITMQGVRYMEGSIAHYFKGRNGHTQIVNILRLNGQEDRFLSGSWDKRLLEWDLQTGDIVNEFKKSRSELSSLEMRPLYSSVDVSGNVNSGKENENADDDMDSLFGDEDEDEKQDAGNEPVETGDGSNGEENKEQISEESLNIVYDESVFMTSGLNGSVHIWDRRMTQSPALSLERGAGVPPWCLSACWGVDGDHVYAGRRNACVEQFDLKMPSKPIHNLKLPSISGPVSCVKAMPNNKHLLCASRDNIRLYNVEIAVDASNSTTKSSKVPFLIVPGHHGGIISNLYLDPTSRFIISTSGNRGWQGNSTDTTLIYDIDLE
